Amino acid sequences for entries named in this document (tags omitted). A change or cut given only in a name is not applied to a line headed by its entry.
UniProt P18054: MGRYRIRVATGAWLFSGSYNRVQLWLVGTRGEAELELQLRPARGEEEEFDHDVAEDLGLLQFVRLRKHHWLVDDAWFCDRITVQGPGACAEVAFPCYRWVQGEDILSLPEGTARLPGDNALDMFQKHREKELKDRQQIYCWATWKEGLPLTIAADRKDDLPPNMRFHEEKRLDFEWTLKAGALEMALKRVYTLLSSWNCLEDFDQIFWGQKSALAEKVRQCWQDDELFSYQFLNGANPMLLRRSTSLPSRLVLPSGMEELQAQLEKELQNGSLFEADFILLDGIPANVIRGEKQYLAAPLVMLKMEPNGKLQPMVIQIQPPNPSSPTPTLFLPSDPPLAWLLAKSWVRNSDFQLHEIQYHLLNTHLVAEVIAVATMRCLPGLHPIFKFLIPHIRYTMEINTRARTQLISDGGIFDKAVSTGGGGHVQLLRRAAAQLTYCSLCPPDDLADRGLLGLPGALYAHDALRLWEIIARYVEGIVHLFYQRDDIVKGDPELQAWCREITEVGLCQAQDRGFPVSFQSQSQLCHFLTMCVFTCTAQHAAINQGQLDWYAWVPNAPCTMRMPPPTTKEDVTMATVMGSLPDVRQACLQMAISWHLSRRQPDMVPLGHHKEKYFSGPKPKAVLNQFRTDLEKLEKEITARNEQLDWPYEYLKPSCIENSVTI

Among all 580,000 compounds or so, about 6,100 (1.1%) were called active. Inconclusive means that the source gave no clear call. Such entries were picked first, then a sample of the others. Calls follow the shape of the dose curve; as a rule, active = well fitted inhibition curve with a large enough effect; inconclusive = small, poorly fitted or top-dose-only effect, or another doubt; inactive = no such curve, though single readings can be large or run the other way. Potencies of inconclusive entries are doubtful fits and often do not repeat.
What follows are molecules tested against Polyunsaturated fatty acid lipoxygenase ALOX12 (Homo sapiens) (UniProt P18054) (assay: Primary qHTS assay for inhibitors of human arachidonate 12S-lipoxygenase (ALOX12): Round 2). Details: purified 12hLO, xylenol orange hydroperoxide absorbance; activity change, negative = inhibition: at 108 µM (top of the series) unless noted.
How it was run: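 Hydroperoxide product was detected by ferrous iron/xylenol orange as the 573 to 405 nm absorbance ratio. Arachidonic acid at 40 uM (final) was turned over for 30 min at room temperature by 150 nM human 12hLO, pH 7.0 Hepes buffer, after 15 min compound preincubation.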
For N#Cc1cccc(NC(=O)N2C[C@@H]3C[C@H](C2)c2ccc(-c4ccc(OC(F)(F)F)cc4)c(=O)n2C3)c1, the Potency was inconclusive: 70.8 µM [inhibitor, single point].
With COc1ccc(Cc2c(-c3ccccc3)nc3ccc(Cl)cn23)c(C)c1 the Potency was inconclusive: 20 µM [inhibitor, partial curve, poor fit].
In the case of CC(NC(=O)c1ccc2ccccc2n1)c1cccs1 (configuration not stated), the Potency is reported as inconclusive: 15.8 µM [inhibitor, partial curve, poor fit].
O=C(CCc1ccccc1)NC(=S)Nc1cccc(Br)c1 was tested, and the Potency was inconclusive: 35.5 µM [inhibitor, partial curve].
In the case of Nc1c(C(=O)Nc2ccc(F)cc2)sc2nc(-c3ccco3)ccc12, the Potency is reported as inconclusive: 7.94 µM [inhibitor, partial curve, poor fit].
CCn1c(=O)cc(SCC(=O)N2CCN(c3cc(C)ccc3C)CC2)c2ccccc21 was tested, and the Potency was “inactive”.
In the case of Cc1ccc(CN2CC3(Cc4ccccc4C(=O)N3)C2)cc1, the Potency is reported as inconclusive: 50.1 µM [inhibitor, full curve, poor fit].
In the case of C=CCn1c(SCC(N)=O)nc2scc(-c3ccc(C)o3)c2c1=O, the Potency is reported as inconclusive: 63.1 µM [inhibitor, partial curve, poor fit].
With CC1CCC(NC(=O)C2CC(=O)N(c3ccc(Cl)cc3)C2)CC1 (configuration not stated) the Potency was “inactive”.
In the case of COc1ccc(NC(=O)NCCCCc2ccccc2)cc1, the Potency is reported as “inactive”.
With OC[C@@H]1O[C@H](CNCc2cccc(Cl)c2)[C@H](N2CCN(c3ccccn3)CC2)[C@@H]1O the Potency was inconclusive: 22.4 µM [inhibitor, full curve].
COc1ccc(C(=O)NCC23C=CC(O2)C2C(=O)N(Cc4ccccc4)C(=O)C23)cc1 (configuration not stated) was tested, and the Potency was “inactive”.
With CCOc1ccc(CNc2ccc(N3CCCC3)cc2)cc1 the Potency was inconclusive: 5.01 µM [inhibitor, full curve, poor fit].
With O=C(c1ccc(C(F)(F)F)cc1)N1CCc2nc(-c3ccccc3)nc(-c3ccc(Cl)cc3)c2C1 the Potency was “inactive”.
S=C(NCc1ccco1)N/N=C/c1ccc(Cl)cc1 was tested, and the Potency was active: 44.7 µM.
Cc1cc(Cl)ccc1OC(C)C(=O)N1CCCN(C(=O)C(C)Oc2ccc(Cl)cc2C)CC1 (configuration not stated) was tested, and the Potency was “inactive”.
COc1cccc(N2CN(C3CCCCC3)CNC2=S)c1 was tested, and the Potency was inconclusive: 141 µM [inhibitor, single point].
COc1ccc2[nH]c(C(=O)N3CCC(CO)(Cc4cccc(C(F)(F)F)c4)CC3)c(C)c2c1 was tested, and the Potency was inconclusive: 126 µM [inhibitor, single point].
For COc1ccc(OC)c(NC(=O)c2cc3ccccc3o2)c1, the Potency was “inactive”.
For CCOC(=O)COc1ccc2cc(-c3ccc(OC)c(OC)c3)c(=O)oc2c1, the Potency was “inactive”.
In the case of CCC(=O)N1CCCc2cc(S(=O)(=O)Nc3ccc(C)c(C)c3)ccc21, the Potency is reported as inconclusive: 50.1 µM [inhibitor, partial curve, poor fit].
O=S1(=O)CC/C(=N\O)c2ccccc21 was tested, and the Potency was inconclusive: 141 µM [inhibitor, partial curve, poor fit].
With COCC(=O)N(C)C[C@H]1N[C@@](Cc2ccccc2)(C(=O)OC)[C@H]2C(=O)N(Cc3ccccc3)C(=O)[C@@H]12 the Potency was inconclusive: 39.8 µM [inhibitor, partial curve, poor fit].
In the case of CC(C)CC(=O)O/N=C1\C(=O)N(c2ccccc2)c2ccccc21, the Potency is reported as “inactive”.
With N=C(N)c1cc(N)cc(C(=N)N)c1 the Potency was inconclusive: 4.47 µM [inhibitor, full curve, poor fit].
With Cc1c(C(=O)Nc2ccc(Br)cc2F)sc2ncnc(N(C)C3CCCCC3)c12 the Potency was inconclusive: 12.6 µM [inhibitor, partial curve, poor fit].
Cc1ccc(NC(=O)CN2C(=O)C(C)(C)c3cc(S(=O)(=O)N4CCCC4)ccc32)cc1 was tested, and the Potency was “inactive”.
In the case of CC(C)(C)c1ccc(NC(=O)N2CCN(c3ccc([N+](=O)[O-])cn3)CC2)cc1, the Potency is reported as “inactive”.
For Cn1c(C(=O)N2CCc3c(n(Cc4cccnc4)n(-c4ccccc4)c3=O)C2)cc2ccccc21, the Potency was inconclusive: 3.98 µM [inhibitor, full curve].
With NC(=S)N/N=C\c1c(OCc2ccccc2Cl)ccc2ccccc12 the Potency was active: 22.4 µM.
COC(=O)c1cc(NCc2ccccc2F)ccc1N1CCOCC1 was tested, and the Potency was inconclusive: 15.8 µM [inhibitor, partial curve, poor fit].
CCOc1ccc(N(CC(=O)NCC2CCCO2)S(=O)(=O)c2ccc(SC)cc2)cc1 (configuration not stated) was tested, and the Potency was inconclusive: 56.2 µM [inhibitor, partial curve, poor fit].
With CCCOC(=O)c1ccc(Oc2coc3cc(OC(=O)N4CCOCC4)ccc3c2=O)cc1 the Potency was “inactive”.
C[C@H]1[C@@H]2[C@@H](O)C([C@H](C)C(=O)NCc3ccc(F)cc3)CC[C@@]2(C)CC[C@@H]1NC(=O)c1ccccc1 (some centres not stated) was tested, and the Potency was “inactive”.
CCOC(=O)c1cnc2c(OC)cccc2c1Nc1cccc(O)c1 was tested, and the activity change, negative = inhibition was inconclusive: -31% [inhibitor].
In the case of COC(=O)C1=C(C)N(Cc2ccccc2)C(=NCC(C)C)N[C@H]1c1cccc(F)c1, the Potency is reported as inconclusive: 63.1 µM [inhibitor, partial curve, poor fit].
CSc1ncc(C(=O)Nc2ccccc2C(=O)c2ccccc2)c(C)n1 was tested, and the Potency was inconclusive: 70.8 µM [inhibitor, partial curve, poor fit].
With COC(=O)C1=C(C)OC(N)=C(C#N)C1c1ccc(C#N)cc1 (configuration not stated) the Potency was inconclusive: 35.5 µM [inhibitor, single point].
In the case of COc1ccc(C2C(C(C)=O)=C(O)C(=O)N2CCCn2ccnc2)cc1 (configuration not stated), the Potency is reported as inconclusive: 50.1 µM [inhibitor, partial curve, poor fit].
In the case of CCOc1cc(/C=C2\C(=O)N(CCc3ccc(OC)c(OC)c3)C(C)=C2C(=O)OC)ccc1O, the Potency is reported as inconclusive: 50.1 µM [inhibitor, partial curve, poor fit].
For CCOC(=O)c1cc(C#N)c(Oc2cccc(C(F)(F)F)c2)nc1-c1ccccc1, the Potency was inconclusive: 3.55 µM [inhibitor, full curve, poor fit].
In the case of CCn1cc(CN2CCC(C(=O)Nc3cccc(-c4cccc(Cl)c4)c3)CC2)cn1, the Potency is reported as inconclusive: 35.5 µM [inhibitor, partial curve, poor fit].
With CCc1nnc(NS(=O)(=O)c2ccc(NC(=S)NC(=O)c3ccc(OC)cc3)cc2)s1 the Potency was active: 8.91 µM.
For CC1CCCCC1NC(=S)NC1CC1 (configuration not stated), the Potency was inconclusive: 28.2 µM [inhibitor, full curve].
O=C(NCC1CCN(C2CCCC2)C1)Nc1ccccc1Cl (configuration not stated) was tested, and the Potency was inconclusive: 3.98 µM [inhibitor, full curve, poor fit].
For O=C(c1nn2c(C(F)(F)F)cc(-c3ccc(F)cc3)nc2c1Cl)N1CCOCC1, the Potency was “inactive”.
For Cc1cccc(CNC(=O)C2CCN(c3nc4ccc(Cl)cc4[nH]3)CC2)c1, the Potency was inconclusive: 79.4 µM [inhibitor, partial curve, poor fit].
In the case of CCn1c(SCC(=O)Nc2ccc(Cl)cn2)nc2ccccc21, the Potency is reported as “inactive”.
With COC(=O)c1nc(NC(=O)c2ccc(Cl)cc2Cl)n[nH]1 the Potency was inconclusive: 39.8 µM [inhibitor, partial curve, poor fit].
With CC(C)C(=O)Nc1ccc(C(=O)NNC(=O)C(c2ccccc2)c2ccccc2)cc1 the Potency was “inactive”.
COCc1ccc2c(c1)c(OC(C)(C)C(N)=O)nn2CCC(C)C was tested, and the Potency was “inactive”.
For CCOC(=O)C1=C(CSc2nc3c(cc2C#N)CN(C)CC3)OC(N)=C(C#N)C1c1ccc(Cl)cc1 (configuration not stated), the Potency was “inactive”.
In the case of O=C(CCc1ncc(-c2ccccc2F)o1)N1CCN(CC(=O)N2CCCCC2)CC1, the Potency is reported as inconclusive: 14.1 µM [inhibitor, full curve].
For CS(=O)(=O)CCN1CCN(C(=O)c2cccc(-c3ncc[nH]3)c2)CC1, the Potency was inconclusive: 10 µM [inhibitor, full curve].
Cc1ccc2c(C(=O)N3CCCC(C#N)C3)cc(-c3cnn(C(C)C)c3)nc2c1 (configuration not stated) was tested, and the Potency was inconclusive: 14.1 µM [inhibitor, partial curve, poor fit].
In the case of Cc1nc2cc(F)cc(C(=O)O)c2nc1C, the Potency is reported as inconclusive: 11.2 µM [inhibitor, full curve].
In the case of COc1cc(/C=N/NC(=O)c2ccccn2)ccc1OC(=O)c1ccc(Br)cc1, the Potency is reported as “inactive”.
For CCc1cccc(NC(=O)CCS(=O)(=O)c2ccc3c(c2)oc(=O)n3C)c1, the Potency was inconclusive: 158 µM [inhibitor, single point].
In the case of CCN(Cc1ccncc1)C(=O)CC(c1ccccc1)c1ccc2c(c1)OCO2 (configuration not stated), the Potency is reported as inconclusive: 79.4 µM [inhibitor, partial curve].
For CC1CCCCC1NC(=S)Nc1cccc2cnccc12 (configuration not stated), the Potency was “inactive”.
C=CCn1c(SCC(=O)Nc2ccc(N3CCOCC3)cc2)nnc1-c1ccncc1 was tested, and the Potency was “inactive”.
In the case of Cc1cccc(Nc2nnc(SCC(=O)Nc3ccccc3[N+](=O)[O-])s2)c1, the Potency is reported as “inactive”.
Cc1ccc(S(=O)(=O)Nc2ccc3c(c2)C(=O)N([C@@H](C)CO)C[C@@H](C)[C@@H](CN(C)S(=O)(=O)c2ccccc2)OCCCC[C@H](C)O3)cc1 was tested, and the Potency was inconclusive: 50.1 µM [inhibitor, partial curve, poor fit].
For Cc1ccc2cc(C(=O)N(Cc3ccco3)C3CC3)[nH]c2c1, the Potency was “inactive”.
In the case of N#C/C(=C/c1cc(Cl)ccc1OCc1cccnc1)c1ccc(C(F)(F)F)cn1, the Potency is reported as inconclusive: 0.631 µM [inhibitor, full curve, poor fit].
With CC1CCN(C(=O)CCc2nnc3ccc(NCCCN4CCCC4=O)nn23)CC1 the Potency was “inactive”.
CCc1ccc(N(C(=O)CCC(=O)Nc2cc(C)on2)C(C(=O)NC2CCCC2)c2ccco2)cc1 (configuration not stated) was tested, and the Potency was inconclusive: 79.4 µM [inhibitor, partial curve, poor fit].
% is scaled to controls: 0 for no effect and ±100 for the full control effect; potency is read from the fitted curve at half-maximal effect.
